Measured values published in PMC5128727, “Metalloprotease SPRTN/DVC1 Orchestrates Replication-Coupled DNA-Protein Crosslink Repair”.
Positions count from the first letter of the chain named. For at least one entry, the source does not settle the construct or the ends of the probe. For some assays here: A weaker result is weaker than the reference pair of the same experiment. Tags and fusion partners may be left off the protein sequences shown. For some assays here: At least one verdict rests on a figure or table, not on a statement of the authors.

Columns and labels:
Assay in all cases: fluorescence polarization
[1] = biological target: T1, SPRTN E112A (human) (UniProt Q9H040); conditions: affinity similar to WT, Probe annealing buffer: 10 mM HEPES pH 7.5, 50 mM NaCl, recombinant protein, residues 1-489, protein details: His-ZB tag cleaved by TEV
T1 sequence (looked up): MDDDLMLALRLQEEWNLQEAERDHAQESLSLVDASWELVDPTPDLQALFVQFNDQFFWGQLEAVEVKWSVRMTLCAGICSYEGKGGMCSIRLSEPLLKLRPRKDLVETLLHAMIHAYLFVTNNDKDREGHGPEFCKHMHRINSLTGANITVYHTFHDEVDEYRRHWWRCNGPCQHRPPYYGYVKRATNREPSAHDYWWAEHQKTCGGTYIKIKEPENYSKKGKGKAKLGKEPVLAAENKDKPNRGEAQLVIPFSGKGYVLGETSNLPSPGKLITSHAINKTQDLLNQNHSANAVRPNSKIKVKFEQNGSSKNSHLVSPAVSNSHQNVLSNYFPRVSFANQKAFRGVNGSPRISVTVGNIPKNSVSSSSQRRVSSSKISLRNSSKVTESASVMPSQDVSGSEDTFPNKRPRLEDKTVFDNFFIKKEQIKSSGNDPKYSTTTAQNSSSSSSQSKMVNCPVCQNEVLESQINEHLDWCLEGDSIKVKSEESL

[2] = biological target: T2, SPRTN Y117C (human) (UniProt Q9H040); conditions: affinity similar to WT, Probe annealing buffer: 10 mM HEPES pH 7.5, 50 mM NaCl, recombinant protein, residues 1-489, protein details: His-ZB tag cleaved by TEV
T2 sequence (looked up): T1 sequence (looked up) with A112E, Y117C

[3] = biological target: T3, SPRTN WT (human) (UniProt Q9H040); conditions: Probe annealing buffer: 10 mM HEPES pH 7.5, 50 mM NaCl, recombinant protein, residues 1-489, protein details: His-ZB tag cleaved by TEV
T3 sequence (looked up): T1 sequence (looked up) with A112E

[4] = biological target: T4, SPRTN 1-218 (human) (UniProt Q9H040); conditions: low DNA affinity; Probe annealing buffer: 10 mM HEPES pH 7.5, 50 mM NaCl; recombinant protein; residues 1-218
T4 sequence (looked up): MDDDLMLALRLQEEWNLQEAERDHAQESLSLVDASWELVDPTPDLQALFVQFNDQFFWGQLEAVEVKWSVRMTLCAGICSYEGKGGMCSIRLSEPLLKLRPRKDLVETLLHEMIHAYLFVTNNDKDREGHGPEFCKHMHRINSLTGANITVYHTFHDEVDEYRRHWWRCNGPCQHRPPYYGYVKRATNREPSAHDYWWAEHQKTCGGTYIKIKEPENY

[5] = biological target: T5, SPRTN 1-268 (human) (UniProt Q9H040); conditions: medium DNA affinity; Probe annealing buffer: 10 mM HEPES pH 7.5, 50 mM NaCl; recombinant protein; residues 1-268
T5 sequence (looked up): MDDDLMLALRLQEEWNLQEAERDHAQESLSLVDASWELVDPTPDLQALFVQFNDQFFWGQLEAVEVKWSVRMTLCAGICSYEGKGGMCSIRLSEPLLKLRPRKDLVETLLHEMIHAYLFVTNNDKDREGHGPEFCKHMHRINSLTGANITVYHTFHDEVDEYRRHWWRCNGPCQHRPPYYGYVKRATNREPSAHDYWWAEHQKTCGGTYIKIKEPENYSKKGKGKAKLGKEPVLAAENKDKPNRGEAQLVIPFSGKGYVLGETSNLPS

[6] = biological target: T6, SPRTN-ΔC (human) (UniProt Q9H040); conditions: Probe annealing buffer: 10 mM HEPES pH 7.5, 50 mM NaCl; recombinant protein; residues 1-246
T6 sequence (looked up): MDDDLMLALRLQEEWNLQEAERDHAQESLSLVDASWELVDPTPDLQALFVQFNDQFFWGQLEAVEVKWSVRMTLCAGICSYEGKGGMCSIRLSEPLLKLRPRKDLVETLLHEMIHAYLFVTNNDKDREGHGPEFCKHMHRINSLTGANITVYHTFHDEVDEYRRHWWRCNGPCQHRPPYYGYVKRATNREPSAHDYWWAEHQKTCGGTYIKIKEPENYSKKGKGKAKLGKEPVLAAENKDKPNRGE

Row | Sequence | binding result [1] | binding result [2] | Kd [3] [nM] | binding result [4] | binding result [5] | Kd [6] [nM] | binding result ([3]; affinity similar to dsDNA) | binding result ([1]; single-stranded DNA) | binding result ([2]; single-stranded DNA)
1 | ATCGATAGTCGGATCCTCTAGACAGCTCCATGTAGCAAGGCACTGGTAGAATTCGGCAGCGTC (double strand) [dsDNA 63 bp (OD1/OD2)] | binds | binds | 100 | binds more weakly | binds more weakly | 480 |  |  | 
2 | ATCGATAGTCGGATCCTCTAGACAGCTCCATGTAGCAAGGCACTGGTAGAATTCGGCAGCGTC / GACGCTGCCGAATTCTACCAGTGCCTTGCTAGGACATCTTTGCCCACCTGCAGGTTCACCC [splayed DNA (OD1/OD3)] | binds | binds |  |  |  |  | binds |  | 
3 | ATCGATAGTCGGATCCTCTAGACAGCTCCATGTAGCAAGGCACTGGTAGAATTCGGCAGCGTC [ssDNA (OD1)] |  |  |  |  |  |  |  | binds | binds
